From the supplement of paper PMC10849652
The list shows a part of the results.

By UniProt entry, the sequences of proteins in these tests, tags left out. Where a name states a change or a piece, a line headed by the entry shows the natural chain unless it says otherwise.
UniProt Q04917: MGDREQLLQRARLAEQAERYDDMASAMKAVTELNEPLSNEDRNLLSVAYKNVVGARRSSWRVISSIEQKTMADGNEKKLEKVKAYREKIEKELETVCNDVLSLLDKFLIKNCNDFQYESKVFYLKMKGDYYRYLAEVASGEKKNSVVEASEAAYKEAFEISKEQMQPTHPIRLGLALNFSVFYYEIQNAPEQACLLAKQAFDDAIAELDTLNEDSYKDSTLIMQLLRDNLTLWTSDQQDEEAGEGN
UniProt Q96TA2: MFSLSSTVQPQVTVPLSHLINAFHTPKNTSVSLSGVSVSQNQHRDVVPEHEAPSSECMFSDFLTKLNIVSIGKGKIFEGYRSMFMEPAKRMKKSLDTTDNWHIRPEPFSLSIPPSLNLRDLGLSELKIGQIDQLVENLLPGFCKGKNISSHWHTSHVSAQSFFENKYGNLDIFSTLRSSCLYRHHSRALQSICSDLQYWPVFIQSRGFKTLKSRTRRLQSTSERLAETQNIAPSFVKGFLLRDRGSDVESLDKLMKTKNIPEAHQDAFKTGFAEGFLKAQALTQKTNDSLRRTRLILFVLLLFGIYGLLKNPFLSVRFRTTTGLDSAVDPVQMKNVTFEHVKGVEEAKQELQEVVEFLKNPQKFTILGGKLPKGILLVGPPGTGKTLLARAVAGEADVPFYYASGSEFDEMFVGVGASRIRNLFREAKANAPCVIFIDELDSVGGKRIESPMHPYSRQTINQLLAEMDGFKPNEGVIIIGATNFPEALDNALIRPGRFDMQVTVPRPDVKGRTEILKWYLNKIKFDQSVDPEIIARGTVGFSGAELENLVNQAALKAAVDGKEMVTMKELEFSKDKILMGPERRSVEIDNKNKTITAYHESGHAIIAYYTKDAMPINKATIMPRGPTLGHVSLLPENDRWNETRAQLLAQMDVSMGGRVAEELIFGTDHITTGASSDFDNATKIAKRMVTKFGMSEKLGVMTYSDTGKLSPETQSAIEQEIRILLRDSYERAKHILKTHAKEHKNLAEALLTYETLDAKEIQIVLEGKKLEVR
UniProt Q5T200: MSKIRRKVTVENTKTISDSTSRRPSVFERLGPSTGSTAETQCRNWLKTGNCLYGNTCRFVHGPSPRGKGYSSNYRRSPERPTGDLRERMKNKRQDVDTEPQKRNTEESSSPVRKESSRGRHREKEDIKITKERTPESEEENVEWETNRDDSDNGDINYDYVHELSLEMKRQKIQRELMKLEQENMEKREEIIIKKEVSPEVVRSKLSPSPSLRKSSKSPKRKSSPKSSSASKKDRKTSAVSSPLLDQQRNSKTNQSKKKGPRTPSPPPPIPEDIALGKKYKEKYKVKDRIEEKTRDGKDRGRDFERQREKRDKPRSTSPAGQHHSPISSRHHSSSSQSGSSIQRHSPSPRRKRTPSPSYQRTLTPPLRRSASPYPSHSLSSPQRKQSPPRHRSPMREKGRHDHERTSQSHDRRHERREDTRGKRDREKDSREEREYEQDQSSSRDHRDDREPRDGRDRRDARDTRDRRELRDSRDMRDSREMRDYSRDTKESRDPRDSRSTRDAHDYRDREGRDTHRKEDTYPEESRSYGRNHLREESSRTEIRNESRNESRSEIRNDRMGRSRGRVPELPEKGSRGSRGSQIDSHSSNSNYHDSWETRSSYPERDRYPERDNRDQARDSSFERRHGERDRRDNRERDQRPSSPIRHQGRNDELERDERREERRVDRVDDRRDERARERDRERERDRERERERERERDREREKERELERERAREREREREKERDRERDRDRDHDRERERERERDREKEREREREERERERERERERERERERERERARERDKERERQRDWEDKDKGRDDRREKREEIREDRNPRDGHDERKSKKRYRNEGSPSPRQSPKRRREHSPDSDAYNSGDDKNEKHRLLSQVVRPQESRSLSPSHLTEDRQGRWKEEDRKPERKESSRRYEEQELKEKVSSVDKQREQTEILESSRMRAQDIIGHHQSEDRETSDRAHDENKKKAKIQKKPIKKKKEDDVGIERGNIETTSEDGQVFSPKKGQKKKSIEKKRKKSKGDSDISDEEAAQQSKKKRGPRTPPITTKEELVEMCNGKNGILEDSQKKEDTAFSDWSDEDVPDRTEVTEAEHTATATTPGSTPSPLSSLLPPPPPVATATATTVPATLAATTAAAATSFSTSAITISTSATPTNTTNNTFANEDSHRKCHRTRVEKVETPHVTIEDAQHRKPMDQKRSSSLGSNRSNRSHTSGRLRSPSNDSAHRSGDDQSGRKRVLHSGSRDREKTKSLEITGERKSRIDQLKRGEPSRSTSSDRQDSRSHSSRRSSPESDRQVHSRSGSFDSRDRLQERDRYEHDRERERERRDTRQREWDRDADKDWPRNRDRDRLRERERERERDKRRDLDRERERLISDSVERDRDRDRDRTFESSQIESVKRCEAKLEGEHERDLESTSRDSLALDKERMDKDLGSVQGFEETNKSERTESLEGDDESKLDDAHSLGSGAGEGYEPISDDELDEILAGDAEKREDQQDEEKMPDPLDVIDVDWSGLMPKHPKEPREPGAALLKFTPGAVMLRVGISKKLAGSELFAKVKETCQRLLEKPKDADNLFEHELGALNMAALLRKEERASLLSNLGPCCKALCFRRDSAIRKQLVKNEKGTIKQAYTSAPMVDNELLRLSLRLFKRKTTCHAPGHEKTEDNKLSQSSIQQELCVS
UniProt Q6PJT7: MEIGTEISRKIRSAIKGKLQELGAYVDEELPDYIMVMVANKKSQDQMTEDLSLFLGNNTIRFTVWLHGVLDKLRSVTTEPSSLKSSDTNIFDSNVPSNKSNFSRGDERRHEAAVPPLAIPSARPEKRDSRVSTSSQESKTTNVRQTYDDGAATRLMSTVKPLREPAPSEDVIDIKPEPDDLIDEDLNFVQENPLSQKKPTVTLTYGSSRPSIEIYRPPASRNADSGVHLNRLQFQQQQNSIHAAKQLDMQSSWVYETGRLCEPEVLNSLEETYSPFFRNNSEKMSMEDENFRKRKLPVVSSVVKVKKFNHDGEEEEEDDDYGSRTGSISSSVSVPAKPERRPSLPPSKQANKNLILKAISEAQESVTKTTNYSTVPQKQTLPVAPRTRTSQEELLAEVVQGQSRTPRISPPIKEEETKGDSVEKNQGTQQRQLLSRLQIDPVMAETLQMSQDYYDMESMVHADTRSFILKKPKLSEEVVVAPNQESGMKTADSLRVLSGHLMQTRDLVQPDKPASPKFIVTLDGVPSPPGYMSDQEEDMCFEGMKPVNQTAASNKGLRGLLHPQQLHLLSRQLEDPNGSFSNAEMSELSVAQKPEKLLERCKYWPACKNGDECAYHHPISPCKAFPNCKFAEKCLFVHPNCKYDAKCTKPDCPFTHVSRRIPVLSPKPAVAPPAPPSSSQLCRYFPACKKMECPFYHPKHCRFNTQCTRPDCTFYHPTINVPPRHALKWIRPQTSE
UniProt O43542: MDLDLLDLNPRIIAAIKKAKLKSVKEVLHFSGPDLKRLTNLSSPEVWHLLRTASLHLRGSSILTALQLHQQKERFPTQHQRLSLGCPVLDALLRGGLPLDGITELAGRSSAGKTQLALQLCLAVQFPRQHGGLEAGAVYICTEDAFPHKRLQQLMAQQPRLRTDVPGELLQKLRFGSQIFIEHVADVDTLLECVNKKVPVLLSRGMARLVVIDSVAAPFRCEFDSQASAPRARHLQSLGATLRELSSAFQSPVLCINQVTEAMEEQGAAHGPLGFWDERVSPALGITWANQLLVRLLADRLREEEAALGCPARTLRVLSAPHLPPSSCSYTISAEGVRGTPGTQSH
UniProt Q9Y2T7, whole entry, looked up: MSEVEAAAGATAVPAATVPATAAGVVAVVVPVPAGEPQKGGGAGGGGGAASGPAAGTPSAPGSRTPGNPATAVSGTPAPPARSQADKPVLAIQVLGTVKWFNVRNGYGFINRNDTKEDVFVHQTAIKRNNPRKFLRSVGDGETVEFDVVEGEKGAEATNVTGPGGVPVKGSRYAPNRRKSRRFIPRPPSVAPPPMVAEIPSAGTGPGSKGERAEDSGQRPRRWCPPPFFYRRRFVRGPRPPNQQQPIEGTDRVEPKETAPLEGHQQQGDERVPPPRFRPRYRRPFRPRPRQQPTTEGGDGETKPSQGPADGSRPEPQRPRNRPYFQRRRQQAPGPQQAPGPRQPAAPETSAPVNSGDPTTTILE
UniProt Q8N567: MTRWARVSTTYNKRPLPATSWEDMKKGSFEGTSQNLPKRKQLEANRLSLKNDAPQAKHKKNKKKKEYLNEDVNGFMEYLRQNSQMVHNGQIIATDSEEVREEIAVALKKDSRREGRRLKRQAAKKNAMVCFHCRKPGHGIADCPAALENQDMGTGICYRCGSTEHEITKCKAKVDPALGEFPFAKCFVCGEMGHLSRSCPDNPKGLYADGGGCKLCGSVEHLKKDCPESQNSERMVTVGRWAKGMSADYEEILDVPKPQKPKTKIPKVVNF
UniProt Q969M3: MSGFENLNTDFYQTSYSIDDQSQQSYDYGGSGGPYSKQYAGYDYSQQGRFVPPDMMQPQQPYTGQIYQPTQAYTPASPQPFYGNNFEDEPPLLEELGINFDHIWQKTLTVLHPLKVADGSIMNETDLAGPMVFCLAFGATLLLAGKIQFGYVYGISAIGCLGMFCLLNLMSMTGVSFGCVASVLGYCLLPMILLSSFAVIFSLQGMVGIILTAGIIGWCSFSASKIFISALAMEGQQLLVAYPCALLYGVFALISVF
UniProt O60315: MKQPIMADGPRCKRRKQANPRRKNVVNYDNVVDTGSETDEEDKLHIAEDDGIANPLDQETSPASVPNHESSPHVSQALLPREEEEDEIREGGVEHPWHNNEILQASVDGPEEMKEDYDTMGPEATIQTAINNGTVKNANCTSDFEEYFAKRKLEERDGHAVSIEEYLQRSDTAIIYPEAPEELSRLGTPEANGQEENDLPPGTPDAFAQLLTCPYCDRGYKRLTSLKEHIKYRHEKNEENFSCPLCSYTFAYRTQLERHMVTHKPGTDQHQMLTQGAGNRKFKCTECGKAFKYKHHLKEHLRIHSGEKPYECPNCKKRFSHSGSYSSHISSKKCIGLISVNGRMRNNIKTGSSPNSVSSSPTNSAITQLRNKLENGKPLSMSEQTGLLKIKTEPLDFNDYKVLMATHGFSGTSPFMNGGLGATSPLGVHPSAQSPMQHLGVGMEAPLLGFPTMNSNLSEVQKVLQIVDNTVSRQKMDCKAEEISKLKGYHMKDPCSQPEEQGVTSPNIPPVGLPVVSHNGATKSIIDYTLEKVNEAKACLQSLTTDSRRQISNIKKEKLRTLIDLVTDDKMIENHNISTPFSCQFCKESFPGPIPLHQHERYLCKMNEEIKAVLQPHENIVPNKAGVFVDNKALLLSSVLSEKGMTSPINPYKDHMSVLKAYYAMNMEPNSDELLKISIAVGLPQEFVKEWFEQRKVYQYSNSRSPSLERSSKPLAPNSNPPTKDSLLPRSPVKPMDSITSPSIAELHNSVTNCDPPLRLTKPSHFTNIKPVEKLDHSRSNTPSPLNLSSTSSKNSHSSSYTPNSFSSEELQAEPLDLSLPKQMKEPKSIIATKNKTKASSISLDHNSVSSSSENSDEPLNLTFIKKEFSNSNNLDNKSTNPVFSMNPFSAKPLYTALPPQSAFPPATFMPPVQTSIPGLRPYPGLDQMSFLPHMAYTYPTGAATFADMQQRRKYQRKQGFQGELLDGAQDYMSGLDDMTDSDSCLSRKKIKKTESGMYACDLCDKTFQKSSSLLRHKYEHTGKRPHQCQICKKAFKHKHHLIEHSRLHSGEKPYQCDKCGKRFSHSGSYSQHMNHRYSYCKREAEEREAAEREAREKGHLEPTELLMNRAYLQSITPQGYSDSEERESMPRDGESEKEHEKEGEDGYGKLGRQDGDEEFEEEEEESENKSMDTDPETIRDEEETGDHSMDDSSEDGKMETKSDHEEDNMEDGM
UniProt Q8IZ13: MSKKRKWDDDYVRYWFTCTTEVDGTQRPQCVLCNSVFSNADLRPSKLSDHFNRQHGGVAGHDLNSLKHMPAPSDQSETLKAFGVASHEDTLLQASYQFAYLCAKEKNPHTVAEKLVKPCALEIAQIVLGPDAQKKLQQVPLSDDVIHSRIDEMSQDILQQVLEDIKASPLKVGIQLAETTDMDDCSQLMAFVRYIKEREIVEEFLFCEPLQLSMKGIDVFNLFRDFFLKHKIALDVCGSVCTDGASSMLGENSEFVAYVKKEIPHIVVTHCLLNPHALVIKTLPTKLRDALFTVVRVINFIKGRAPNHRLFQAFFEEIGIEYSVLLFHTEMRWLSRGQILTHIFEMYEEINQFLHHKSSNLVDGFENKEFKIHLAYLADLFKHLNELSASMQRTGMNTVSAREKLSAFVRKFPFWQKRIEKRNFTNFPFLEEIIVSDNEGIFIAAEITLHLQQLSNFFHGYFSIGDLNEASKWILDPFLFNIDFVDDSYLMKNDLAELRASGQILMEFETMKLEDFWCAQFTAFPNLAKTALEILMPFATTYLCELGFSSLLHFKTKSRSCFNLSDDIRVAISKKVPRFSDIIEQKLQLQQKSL

These targets were tested with C1=CC=C(C=C1)[C@H](COC2=CC3=C(C=C2)NC(=O)N3)NC(=O)C4=CC=CN(C4=O)CC5=CC(=C(C=C5)F)F (assay: log2 fold change, soluble protein after heating vs DMSO (PISA); higher = thermal stabilisation; K562 lysate, 10 uM; active = over 0.2 and 3.5 SD of the protein, either way, in both replicates (recomputed)).
Outline: (§1)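 Soluble protein was defined as the supernatant remaining after 21,000xg for 90 min, following pooling of heated aliquots and adjustment to 0.5% NP-40 at 4°C. Before that, crude K562 extract at 1 mg/mL protein in PBS pH 7.4 with 1 mM MgCl2 was treated with 10 μM compound for 30 min and heated for 3 min across 48°C-58°C. Quantification used TMTpro 16plex LC-MS/MS with channel sums equalised, and values are log-two fold changes in thermal stability relative to solvent controls from duplicates.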
ZGPAT (UniProt Q8N5A5) was tested, and the log2 fold change was inactive: 0.044.
With YWHAH (UniProt Q04917) the log2 fold change was inactive: 0.001.
In the case of YWHAZ (UniProt E7EX29), the log2 fold change is reported as inactive: 0.047.
ZFYVE19 isoform 3 (UniProt Q96K21) was tested, and the log2 fold change was inactive: 0.062.
For YIF1A (UniProt O95070), the log2 fold change was inactive: -0.16.
With ZC3H7B (UniProt Q9UGR2) the log2 fold change was inactive: 0.063.
With YME1L1 (UniProt Q96TA2) the log2 fold change was inactive: 0.004.
For ZC3H13 (UniProt Q5T200), the log2 fold change was inactive: -0.005.
In the case of YWHAE (UniProt P62258), the log2 fold change is reported as inactive: 0.032.
In the case of ZC3H14 (UniProt Q6PJT7), the log2 fold change is reported as inactive: -0.008.
With ZBTB3 (UniProt Q9H5J0) the log2 fold change was inactive: 0.093.
ZFPM2 (UniProt Q8WW38) was tested, and the log2 fold change was inactive: 0.116.
For ZFYVE9 (UniProt O95405), the log2 fold change was inactive: 0.034.
In the case of XPO7 (UniProt Q9UIA9), the log2 fold change is reported as inactive: -0.024.
In the case of XRCC3 (UniProt O43542), the log2 fold change is reported as inactive: 0.111.
ZER1 (UniProt Q7Z7L7) was tested, and the log2 fold change was inactive: -0.058.
For YBX2 (UniProt Q9Y2T7), the log2 fold change was inactive: -0.181.
For ZFP91 (UniProt Q96JP5), the log2 fold change was inactive: 0.04.
In the case of YBX3 isoform 2 (UniProt P16989), the log2 fold change is reported as inactive: 0.092.
For XRCC5 (UniProt P13010), the log2 fold change was inactive: 0.017.
YY1 (UniProt P25490) was tested, and the log2 fold change was inactive: -0.002.
YARS2 (UniProt Q9Y2Z4) was tested, and the log2 fold change was inactive: 0.038.
ZCCHC9 (UniProt Q8N567) was tested, and the log2 fold change was inactive: 0.105.
For YRDC (UniProt Q86U90), the log2 fold change was inactive: -0.009.
ZC3H8 (UniProt Q8N5P1) was tested, and the log2 fold change was inactive: 0.04.
XPOT (UniProt O43592) was tested, and the log2 fold change was inactive: -0.017.
ZFPL1 (UniProt O95159) was tested, and the log2 fold change was inactive: 0.039.
In the case of YIPF5 isoform 3 (UniProt Q969M3), the log2 fold change is reported as inactive: -0.018.
For YLPM1 (UniProt P49750), the log2 fold change was inactive: -0.029.
With YEATS2 (UniProt Q9ULM3) the log2 fold change was inactive: 0.028.
In the case of YARS (UniProt P54577), the log2 fold change is reported as inactive: -0.029.
With ZEB2 (UniProt O60315) the log2 fold change was inactive: 0.064.
In the case of ZFYVE27 isoform 2 (UniProt Q5T4F4), the log2 fold change is reported as inactive: 0.134.
With ZFHX4 isoform 5 (UniProt Q86UP3) the log2 fold change was inactive: 0.027.
With ZBED8 (UniProt Q8IZ13) the log2 fold change was inactive: -0.089.
For ZFYVE26 (UniProt Q68DK2), the log2 fold change was inactive: -0.033.
In the case of XRCC1 (UniProt F5H8D7), the log2 fold change is reported as inactive: 0.138.
In the case of XPR1 (UniProt Q9UBH6), the log2 fold change is reported as inactive: -0.003.

The targets below were run with CC1=C(SC2=C1C(=N[C@H](C3=NN=C(N32)C)CC(=O)N)C4=CC=C(C=C4)Cl)C in the same assay as above.
Outline: as §1
ZGPAT (UniProt Q8N5A5) was tested, and the log2 fold change was inactive: -0.03.
With YWHAH (UniProt Q04917) the log2 fold change was inactive: -0.024.
In the case of YWHAZ (UniProt E7EX29), the log2 fold change is reported as inactive: -0.02.
In the case of ZFYVE19 isoform 3 (UniProt Q96K21), the log2 fold change is reported as inactive: -0.075.
For YIF1A (UniProt O95070), the log2 fold change was inactive: -0.009.
In the case of ZC3H7B (UniProt Q9UGR2), the log2 fold change is reported as inactive: -0.056.
With YME1L1 (UniProt Q96TA2) the log2 fold change was inactive: -0.021.
In the case of ZC3H13 (UniProt Q5T200), the log2 fold change is reported as inactive: -0.039.
In the case of YWHAE (UniProt P62258), the log2 fold change is reported as inactive: -0.013.
In the case of ZC3H14 (UniProt Q6PJT7), the log2 fold change is reported as inactive: -0.007.
ZBTB3 (UniProt Q9H5J0) was tested, and the log2 fold change was inactive: 0.173.
With ZFPM2 (UniProt Q8WW38) the log2 fold change was inactive: 0.246.
In the case of ZFYVE9 (UniProt O95405), the log2 fold change is reported as inactive: 0.039.
With XPO7 (UniProt Q9UIA9) the log2 fold change was inactive: 0.021.
In the case of XRCC3 (UniProt O43542), the log2 fold change is reported as inactive: -0.053.
ZER1 (UniProt Q7Z7L7) was tested, and the log2 fold change was inactive: -0.053.
YBX2 (UniProt Q9Y2T7) was tested, and the log2 fold change was inactive: -0.123.
ZFP91 (UniProt Q96JP5) was tested, and the log2 fold change was inactive: 0.014.
With YBX3 isoform 2 (UniProt P16989) the log2 fold change was inactive: -0.039.
For XRCC5 (UniProt P13010), the log2 fold change was inactive: -0.005.
YY1 (UniProt P25490) was tested, and the log2 fold change was inactive: -0.009.
In the case of YARS2 (UniProt Q9Y2Z4), the log2 fold change is reported as inactive: -0.025.
ZCCHC9 (UniProt Q8N567) was tested, and the log2 fold change was inactive: 0.029.
In the case of YRDC (UniProt Q86U90), the log2 fold change is reported as inactive: 0.02.
ZC3H8 (UniProt Q8N5P1) was tested, and the log2 fold change was inactive: 0.036.
With XPOT (UniProt O43592) the log2 fold change was inactive: 0.008.
In the case of ZFPL1 (UniProt O95159), the log2 fold change is reported as inactive: 0.048.
For YIPF5 isoform 3 (UniProt Q969M3), the log2 fold change was inactive: -0.001.
For YLPM1 (UniProt P49750), the log2 fold change was inactive: -0.04.
YEATS2 (UniProt Q9ULM3) was tested, and the log2 fold change was inactive: 0.128.
For YARS (UniProt P54577), the log2 fold change was inactive: 0.009.
With ZEB2 (UniProt O60315) the log2 fold change was inactive: 0.049.
In the case of ZFYVE27 isoform 2 (UniProt Q5T4F4), the log2 fold change is reported as inactive: -0.013.
ZFHX4 isoform 5 (UniProt Q86UP3) was tested, and the log2 fold change was inactive: 0.203.
With ZBED8 (UniProt Q8IZ13) the log2 fold change was inactive: 0.142.
ZFYVE26 (UniProt Q68DK2) was tested, and the log2 fold change was inactive: 0.082.
For XRCC1 (UniProt F5H8D7), the log2 fold change was inactive: 0.022.
In the case of XPR1 (UniProt Q9UBH6), the log2 fold change is reported as inactive: -0.044.
